Structures can show the parent of a compound that is named as a salt. Some results were stated once for a whole list of compounds, not compound by compound.
Target: human GSK3β (Homo sapiens, UniProt P49841)
Assay: Screening for GSK3 inhibitory activity using a cell-free assay
Assay type: biochemical
Settings: biotinylated prephosphorylated CREB peptide, γ33P-ATP, read-out: IC50 with respect to GSK3

The chains behind the UniProt entries cited, without tags or fusion partners. Where a name states a change or a piece, a line headed by the entry shows the natural chain unless it says otherwise.
UniProt P49841: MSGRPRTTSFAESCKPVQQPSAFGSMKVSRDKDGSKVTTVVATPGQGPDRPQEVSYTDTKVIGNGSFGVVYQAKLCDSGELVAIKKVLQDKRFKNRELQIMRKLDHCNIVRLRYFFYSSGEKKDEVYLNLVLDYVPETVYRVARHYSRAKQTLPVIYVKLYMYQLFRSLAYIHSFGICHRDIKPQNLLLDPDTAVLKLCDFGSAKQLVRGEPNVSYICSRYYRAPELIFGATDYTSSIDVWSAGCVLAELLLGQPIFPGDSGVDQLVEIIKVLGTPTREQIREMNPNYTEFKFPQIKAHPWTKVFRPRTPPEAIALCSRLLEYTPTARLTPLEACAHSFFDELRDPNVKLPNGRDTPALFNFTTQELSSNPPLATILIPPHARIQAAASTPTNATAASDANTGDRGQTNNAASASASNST

Structure (SMILES)	IC50
CSc1nc2c(c(=O)[nH]1)CN(C(=O)OC(C)(C)C)CC2 [Example 3, tert-butyl 2-methylthio-4-oxo-3,5,6,7,8-pentahydropyridino[4,3-d]pyrimidine-6-carboxylate]	≤ 1 µM
CSc1nc(Cl)c2c(n1)CCN(C(=O)OC(C)(C)C)C2 [Example 4, tert-butyl 4-chloro-2-methylthio-5,6,7,8-tetrahydropyridino[4,3-d]pyrimidine-6-carboxylate]	≤ 1 µM
CSc1nc2c(c(-c3ccc(Cl)cc3Cl)n1)CN(C(=O)OC(C)(C)C)CC2 [Example 5, tert-butyl 4-(2,4-dichlorophenyl)-2-methylthio-5,6,7,8-tetrahydropyridino[4,3-d]pyrimidine-6-carboxylate]	≤ 1 µM
CC(C)(C)OC(=O)N1CCc2nc(S(C)(=O)=O)nc(-c3ccc(Cl)cc3Cl)c2C1 [Example 6, tert-butyl 4-(2,4-dichlorophenyl)-2-(methylsulfonyl)-5,6,7,8-tetrahydropyridino[4,3-d]pyrimidine-6-carboxylate]	≤ 1 µM
CSc1nc2c(c(Oc3ccc(Cl)cc3Cl)n1)CN(C(=O)OC(C)(C)C)CC2 [Example 8, tert-butyl 4-(2,4-dichlorophenoxy)-2-methylthio-5,6,7,8-tetrahydropyridino[4,3-d]pyrimidine-6-carboxylate]	≤ 1 µM
CC(C)(C)OC(=O)N1CCc2nc(S(C)(=O)=O)nc(Oc3ccc(Cl)cc3Cl)c2C1 [Example 9, tert-butyl 4-(2,4-dichlorophenoxy)-2-(methylsulfonyl)-5,6,7,8-tetrahydropyridino[4,3-d]pyrimidine-6-carboxylate]	≤ 1 µM
Nc1nc(NCCNc2nc3c(c(Nc4ccc(Cl)cc4Cl)n2)CNCC3)ccc1[N+](=O)[O-] [Example 10, {2-[(6-amino-5-nitro(2-pyridyl))amino]ethyl}{4-[(2,4-dichlorophenyl)amino](5,6,7,8-tetrahydropyridino[4,3-d]pyrimidin-2-yl)}amine hydrochloride]	≤ 1 µM
CSc1nc2c(c(Nc3ccc(Cl)cc3Cl)n1)CN(C(=O)OC(C)(C)C)CC2 [Example 11, tert-butyl 4-[(2,4-dichlorophenyl)amino]-2-methylthio-5,6,7,8-tetrahydropyridino[4,3-d]pyrimidine-6-carboxylate]	≤ 1 µM
CC(C)(C)OC(=O)N1CCc2nc(S(C)(=O)=O)nc(Nc3ccc(Cl)cc3Cl)c2C1 [Example 12, tert-butyl 4-[(2,4-dichlorophenyl)amino]-2-(methylsulfonyl)-5,6,7,8-tetrahydropyridino[4,3-d]pyrimidine-6-carboxylate]	≤ 1 µM
CSc1nc2c(c(-c3ccc(F)cc3F)n1)CN(C(=O)OC(C)(C)C)CC2 [Example 14, tert-butyl 4-(2,4-difluorophenyl)-2-methylthio-5,6,7,8-tetrahydropyridino[4,3-d]pyrimidine-6-carboxylate]	≤ 1 µM
CC(C)(C)OC(=O)N1CCc2nc(S(C)(=O)=O)nc(-c3ccc(F)cc3F)c2C1 [Example 15, tert-butyl 4-(2,4-difluorophenyl)-2-(methylsulfonyl)-5,6,7,8-tetrahydropyridino[4,3-d]pyrimidine-6-carboxylate]	≤ 1 µM
CS(=O)(=O)c1nc2c(c(-c3ccc(Cl)cc3Cl)n1)CNCC2 [Example 16, 4-(2,4-dichlorophenyl)-2-(methylsulfonyl)-5,6,7,8-tetrahydropyridino[4,3-d]pyrimidine]	≤ 1 µM
CC(=O)N1CCc2nc(S(C)(=O)=O)nc(-c3ccc(Cl)cc3Cl)c2C1 [Example 17, 6-acetyl-4-(2,4-dichlorophenyl)-2-(methylsulfonyl)-5,6,7,8-tetrahydropyridino[4,3-d]pyrimidine]	≤ 1 µM
CC(=O)N1CCc2nc(NCCNc3ccc([N+](=O)[O-])c(N)n3)nc(-c3ccc(Cl)cc3Cl)c2C1 [Example 18, 6-acetyl-2-({2-[(6-amino-5-nitro(2-pyridyl))amino]ethyl}amino)-4-(2,4-dichlorophenyl)-5,6,7,8-tetrahydropyridino[4,3-d]pyrimidine]	≤ 1 µM
CC(=O)N1CCc2nc(NCCNc3ccc(C#N)cn3)nc(-c3ccc(Cl)cc3Cl)c2C1 [Example 19, 6-[(2-{[6-acetyl-4-(2,4-dichlorophenyl)-5,6,7,8-tetrahydropyridino[4,3-d]pyrimidin-2-yl]amino}ethyl)amino]pyridine-3-carbonitrile]	≤ 1 µM

Source: patent publication US6800632B2, “Bicyclic inhibitors of glycogen synthase kinase 3” (Chiron Corporation, priority 1999, dated 2004)
